Measurements reported in article PMC12179657.
Like-named read-outs stand apart in the source and are kept apart here. Results are given in words; binding and its absence hold for the method and conditions named. Binding seen in cells or lysates may run through a third protein. Some binding calls cover weakened binding; strength is not graded here.

Protein sequences, listed by entry. Tags and fused reporters are not part of them.
UniProt P61290: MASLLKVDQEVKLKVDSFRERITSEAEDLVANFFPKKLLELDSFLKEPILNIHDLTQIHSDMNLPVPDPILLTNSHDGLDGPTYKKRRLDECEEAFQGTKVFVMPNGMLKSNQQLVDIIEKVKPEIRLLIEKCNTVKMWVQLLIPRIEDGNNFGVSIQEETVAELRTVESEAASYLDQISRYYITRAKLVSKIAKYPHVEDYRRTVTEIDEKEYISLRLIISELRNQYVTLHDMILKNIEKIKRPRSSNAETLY
UniProt O35685: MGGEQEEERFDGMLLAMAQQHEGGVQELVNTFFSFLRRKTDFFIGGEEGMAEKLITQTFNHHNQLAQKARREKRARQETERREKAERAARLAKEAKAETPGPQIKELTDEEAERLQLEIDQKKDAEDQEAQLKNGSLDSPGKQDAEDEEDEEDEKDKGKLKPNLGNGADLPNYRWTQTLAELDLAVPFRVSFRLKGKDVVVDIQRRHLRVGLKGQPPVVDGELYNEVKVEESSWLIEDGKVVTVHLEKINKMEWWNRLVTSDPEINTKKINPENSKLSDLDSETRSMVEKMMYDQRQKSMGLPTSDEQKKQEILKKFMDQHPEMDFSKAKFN

B1: RPRD1A, endogenous (protein, UniProt Q8VDS4 1-312)
chain: MSAFSEAALEKKLSELSNSQQSVQTLSLWLIHHRKHSRPIVTVWERELRKAKPNRKLTFLYLANDVIQNSKRKGPEFTKDFAPVIVEAFKHVSSETDESCKKHLGRVLSIWEERSVYENDVLEQLKHALYGDKKARKRTYEQIKVDENENCSSLGSPSEPPQTLDLVRALQDLENAASGDAAVHQRIASLPVEVQEVSLLEKITDKESGERLSKMVEDACMLLADYNGRLAAEIDDRKQLTRMLADFLRCQKEALAEKEHKLEEYKRKLARVSLVRKELRARIQSLPDLSRLPNVTGSHMHLPFAGDIYSED

Assays:
FLAG-PSME3 [1] = biological target: FLAG-PSME3 (UniProt P61290); assay: proximity ligation; DuoLink In Situ Orange kit in fixed cycling C2C12 cells transfected with FLAG-PSME3; primary antibodies against FLAG and the endogenous partner; controls omitted one or both antibodies
FLAG-PSME3 [2] = biological target: FLAG-PSME3 (UniProt P61290); assay: as above; remark: listed apart in the source
[3] = biological target: proteasome activator complex subunit 3 (PSME3), endogenous (mouse (endogenous in C2C12)) (UniProt P61290); assay: co-IP; endogenous PSME3 precipitated with a PSME3-specific antibody and Protein A Dynabeads from Day 0 C2C12 lysate (20 mM Tris-HCl pH 7.5, 100 mM NaCl, 1% NP-40, 1 mM EDTA; overnight at 4°C); Western blot for PSME3 and RPRD1A; isotype IgG control

Molecule	binding (FLAG-PSME3 [1])	binding (FLAG-PSME3 [2])	binding [3]
NUDC, endogenous (from UniProt O35685 1-332)	binds		
B1		binds	binds
